Measurements reported in PubChem BioAssay AID1259308 (NCATS, 2017).

- Purpose: 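Candidate targets for better recombinant protein yield in mammalian cells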 (primary screen)
- Cell system: human HEK293 embryonic kidney cells stably expressing firefly luciferase (HEK-CMV-Luc2-Hygro)
- Knock-down reagent: single siRNA against human genes, 0.8 pmol siRNA per well
- Duration: 72 h
- Detection: 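Luciferase light (ONE-Glo) measured on one replicate plate set and viability (CellTiter-Glo) on the other, scaled to a negative control siRNA, with robust z-scores and luciferase per cell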
- Scale: total luciferase, z-score: higher = more reporter protein produced
- Hit rule: 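An siRNA counts as active if its total luciferase robust z-score exceeds 3; genes with two or more such siRNAs out of three were retested with fresh siRNAs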
- Meaning of the calls: active = raised luciferase; inactive = no rise
The deposit covers about 59,000 reagents; this is an unselected part. About 1,510 of them (2.6%) were called active. 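Calls use total luciferase alone and ignore viability, so some active siRNAs may act by altering cell number.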 The numbers tell different reagents against one gene apart. Not all columns of the deposit are shown.

Gene,reagent no.,"total luciferase, z-score",outcome
HOXD13,1,0.0879,inactive
HOXD13,2,2.08,inactive
HOXD13,3,0.527,inactive
IGF1R,1,0.308,inactive
IGF1R,2,-1.02,inactive
IGF1R,3,1.16,inactive
CCDC181,1,1.21,inactive
CCDC181,2,1.19,inactive
CCDC181,3,1.17,inactive
CAAP1,1,-3.03,inactive
CAAP1,2,-0.192,inactive
CAAP1,3,0.374,inactive
HCFC1R1,1,1.43,inactive
HCFC1R1,2,0.447,inactive
HCFC1R1,3,-0.0145,inactive
KCTD3,1,-0.661,inactive
KCTD3,2,-0.925,inactive
KCTD3,3,-0.289,inactive
CDC25A,1,0.401,inactive
CDC25A,2,-0.252,inactive
CDC25A,3,1.22,inactive
CCDC185,1,-0.934,inactive
CCDC185,2,-1.23,inactive
CCDC185,3,-0.787,inactive

In a second layout: results already given.
Gene	reagent no.	total luciferase, z-score	outcome
CDC25A	3	1.22	inactive
CCDC185	1	-0.934	inactive
